From paper PMC6536413, “Application of ultrasound‐guided cholecystocentesis to the evaluation of the metabolite profiling in bile of dogs and cynomolgus monkeys” (Pharmacology Research & Perspectives, 2019)

What was measured:
[1] = Plasma pharmacokinetics of ATV and metabolites in BDC and UCC dogs (LC-MS/MS); type: in vivo; conditions: male, beagle, dog, po, 40 mg/kg, 40 mg/kg oral dose of ATV, ± standard deviation; for AUC: read-out: AUC0‐24h
Method: (§1) Plasma samples were collected at 0.5, 1, 2, 4, 6, and 24 hours postdose via cephalic vein or indwelling cephalic catheter. At the 6‐ and 24‐hours postdose time points, dogs were sedated with propofol at 6 mg/kg through an indwelling cephalic catheter. The dogs were then positioned in a dorsal‐recumbency with head elevated. Heart rate, rhythm, and arterial oxygen saturation were monitored throughout the procedure. After shaving and aseptically preparing the abdominal skin immediately caudal to the xiphoid process, an ultrasound exam of the gallbladder and cranial abdomen was done using a Mylab30cv ultrasound system with 9‐3 MHz micro‐convex transducer (Esoate, Indianapolis, IN). A 21‐gauge, 1.5‐inch needle, attached to a 5‐mL syringe, was inserted percutaneously through the abdominal wall into the gallbladder lumen. Effort was made to completely empty the gallbladder by aspiration (typically, 2‐5 mL bile was obtained). The needle and syringe were withdrawn and the bile samples were immediately saved on dry ice for later analysis. Dogs were allowed to recover in their home cages. Both plasma and bile samples were stored at −20°C until analysis.
(§2) Plasma samples were collected from dogs and monkeys at 0.5, 1, 2, 4, 6, and 24 hours postdose. Bile samples were collected at 0‐2 hours, 2‐4 hours, 4‐6 hours, 6‐8 hours, and 8‐24 hours intervals. Both plasma and bile samples were stored at −20°C until analysis.
(§3) Quantification of ATV and its metabolites in dog and monkey plasma and bile was performed using LC‐MS/MS‐based analysis. Standard curves and quality control (QC) samples defining the dynamic range of the bioanalytical method were prepared in commercially available control plasma and processed in the same fashion as the test samples. When dilutions were required, an aliquot of the sample was diluted into control plasma. […] The supernatant was then separated from the precipitated proteins after a 10‐minute centrifugation at 3500 rpm (2109× g) at 10°C and transferred to an autosampler 96‐well plate. An aliquot (10 µL) was injected onto the ultrahigh performance liquid chromatography (UHPLC) column for LC‐MS/MS‐based analysis. Samples from individual animals were not pooled prior to quantitative analysis.
(§4) The UHPLC system Nexera (Shimadzu, Japan) consisted of two pumps (LC30AD), a column heater (CTO‐30A), and an autosampler (SIL‐30AC) equipped with a cooling compartment that maintained samples at 15°C during analysis. The analytical column used was a BEH C18 2.1 mm × 50 mm, 1.7 µm (Waters Corporation, Milford, MA) at 50°C. The mobile phase, which consisted of 0.1% formic acid in water (A) and acetonitrile (B), was delivered at a flow rate of 0.6 mL/min. The initial conditions were 100% aqueous followed by 1‐minute gradient to 100% acetonitrile then hold for 0.4 minutes and back to initial conditions.
(§5) The UHPLC was interfaced to a Finnigan TSQ Quantum Ultra LC‐MS/MS tandem mass spectrometer (Thermo Electron Corporation) equipped with heated electrospray ionization (HESI‐II) interface operating in the positive ionization mode. Ultrahigh‐purity nitrogen was used as the sheath and auxiliary gases at flow rates of 55 L/h for sheath and 25 L/h for auxiliary. The desolvation temperature was 300°C and the source temperature was 350°C. The detection of each analyte was achieved through selected reaction monitoring. Ions representing the precursor mass‐to‐charge ratio (m/z) species for all analytes were selected in quadrupole 1 and collisionally dissociated with ultrahigh‐purity argon at a pressure of 1.5 × 10^−3 torr to generate specific product ions, which were subsequently monitored by quadrupole 2.
(§6) The predicted concentrations of more than 2/3 of the QCs were within 20% of nominal values, indicating acceptable assay performance.
The peak concentration (Cmax) and time for Cmax (Tmax) were recorded directly from experimental observations. […]

[2] = Concentration of ATV and metabolites in dog bile obtained by BDC and UCC (LC-MS/MS); type: in vivo, beagle dogs; conditions: for Concentration in bile: BDC dogs, 40 mg/kg ATV orally, ± standard deviation
Method: as §1, §2, §3, §4, §5, §6

[3] = Plasma pharmacokinetics of ATV and metabolites in BDC and UCC monkeys (LC-MS/MS); type: in vivo, cynomolgus macaques; conditions: male, cynomolgus, cynomolgus monkey, po, 30 mg/kg, 30 mg/kg oral dose of ATV, ± standard deviation; for AUC: read-out: AUC0‐24h
Method: (§7) Plasma and bile samples were collected. For bile collection monkeys were sedated with ketamine (8 mg/kg) and dexmedetomidine (0.05 mg/kg) intramuscularly. At the conclusion of the procedure, sedation was reversed with atipamezole (0.15 mg/kg) intramuscularly. All other procedures were the same as for the dog.
as §2
as §3, with “Standard” for “Quantification of ATV and its metabolites in dog and monkey plasma and bile was performed using LC‐MS/MS‐based analysis. Standard”
as §4
The UHPLC was interfaced to a Finnigan TSQ Quantum Ultra LC‐MS/MS tandem mass spectrometer (Thermo Electron Corporation) equipped with heated electrospray ionization (HESI‐II) interface operating in the positive ionization mode. Ultrahigh‐purity nitrogen was used as the sheath and auxiliary gases at flow rates of 55 L/h for sheath and 25 L/h for auxiliary. The desolvation temperature was 300°C and the source temperature was 350°C. The detection of each analyte was achieved through selected reaction monitoring. […]
The peak concentration (Cmax) and time for Cmax (Tmax) were recorded directly from experimental observations. The area under the curve from time 0 to 24 hours (AUC0‐24h) was calculated using a combination of linear and log trapezoidal summations.

[4] = Concentration of ATV and metabolites in monkey bile obtained by BDC and UCC (LC-MS/MS); type: in vivo, cynomolgus macaques; conditions: for Concentration in bile: BDC monkeys, 30 mg/kg ATV orally
Method: as §7, §2, §3, §4, §5, §6

[5] = Metabolite profile of ATV in dog bile (LC-MS, UV 254 nm); type: in vivo, beagle dogs; conditions: UCC and BDC
Method: Dog bile samples obtained by cholecystocentesis were pooled across animals (n = 3). Samples were mixed with an equal volume of citrate buffer (100 mmol/L) to make the final buffer concentration of 50 mmol/L. The mixture was mixed by vortexing for 1 minute and then centrifuged at 12 000× g for 15 minutes. An aliquot (5‐10 μL) of the supernatant was injected onto the UHPLC column for LC‐MS/MS‐based analysis.
The metabolite profile was obtained using LTQ‐Orbitrap coupled with Accela UHPLC and PDA (ThermoScientific, San Jose, CA) and a CTC PAL autosampler equipped with a cooling stack that maintained samples at 4°C during analysis. A 20‐minute UHPLC method was developed. The column was Acquity UPLC HSS T3 (Waters, Milford, MA) 2.1 × 150 mm, 1.8 µm. The column was maintained at a temperature of 55°C. The mobile phase consisted of 0.1% formic acid in water (solvent A) and 0.1% formic acid in acetonitrile (solvent B) at a flowrate of 600 µL/min with the following linear gradient conditions: 5% A for 0.5 minutes, 20‐60% B over 14 minutes, 95% B over 3 minutes, and 5% B isocratic for 2 minutes. Instrument settings were as follows: m/z range: 100 to 1000, capillary temperature was set at 280°C, nitrogen sheath gas flow rate 80 (arbitrary units), auxiliary gas 20, spray voltage 4.0 kV, and tube lens offset 80 V. In addition, UV wavelength was monitored at 254 nm.

[6] = Concentration of ATV and metabolites in monkey bile obtained by BDC and UCC (LC-MS/MS); type: in vivo, cynomolgus macaques; conditions: UCC monkeys, 4‐5 h, 30 mg/kg ATV orally, ± standard deviation
[7] = dog; cited from earlier work
[8] = male, beagle, dog, bile, po, 40 mg/kg

CC(C)c1c(C(=O)Nc2ccccc2)c(-c2ccccc2)c(-c2ccc(F)cc2)n1CC[C@@H](O)C[C@@H](O)CC(=O)O [ATV, atorvastatin, reference compound]
Cmax ([1]; BDC dogs (n = 3)): 518 ± 301 nM | Tmax ([1]; BDC dogs (n = 3)): 1.7 ± 0.6 h | AUC ([1]; BDC dogs (n = 3)): 1.07 ± 0.279 µM·h | Cmax ([1]; UCC dogs (n = 3)): 642 ± 72 nM | Tmax ([1]; UCC dogs (n = 3)): 1.7 ± 0.6 h | AUC ([1]; UCC dogs (n = 3)): 2.35 ± 0.667 µM·h | Concentration in bile ([2]; 0‐2 h): 747 ± 729 µmol/L | Concentration in bile ([2]; 2‐4 h): 1368 ± 457 µmol/L | Concentration in bile ([2]; 4‐6 h): 585 ± 541 µmol/L | Concentration in bile ([2]; 6‐8 h): 262 ± 229 µmol/L | Concentration in bile ([2]; 8‐24 h): 42 ± 31 µmol/L | concentration at 6 h [2, 8]: 456 ± 109 µM | concentration at 24 h [2, 8]: 188 ± 255 µM | Cmax ([3]; BDC monkeys (n = 4)): 83 ± 14 nM | AUC ([3]; BDC monkeys (n = 4)): 1.08 ± 0.571 µM·h | Cmax ([3]; UCC monkeys (n = 3)): 52 ± 26 nM | Tmax ([3]; UCC monkeys (n = 3)): 1 ± 0.9 h | AUC ([3]; UCC monkeys (n = 3)): 0.501 ± 0.243 µM·h | Concentration in bile ([4]; 0‐2 h, n = 2 due to blocked/displaced cannulas): 101 µmol/L | Concentration in bile ([4]; 2‐4 h, ± standard deviation): 147 ± 53 µmol/L | Concentration in bile ([4]; 4‐6 h, ± standard deviation): 194 ± 120 µmol/L | Concentration in bile ([4]; 6‐8 h, n = 2 due to blocked/displaced cannulas): 114 µmol/L | Concentration in bile ([4]; 8‐24 h, ± standard deviation): 114 ± 67 µmol/L | concentration at 24 h ([4]; male, cynomolgus, cynomolgus monkey, bile, po, 30 mg/kg): 168 ± 45 µM | number of metabolites detected besides unchanged ATV [5]: 19 | Concentration in bile [6]: 79 ± 42 µmol/L | biliary excretion of ATV and its metabolites, share of the oral dose [7]: 33%
